Test results as given in PMC5889392, “Cryptic glucocorticoid receptor-binding sites pervade genomic NF-κB response elements”.
A negative result means that nothing was seen under these conditions. At least one verdict rests on a figure or table, not on a statement of the authors. Where a protein sequence is shown, tags need not be part of it.

Target: T1, MR DBD (Homo sapiens) (UniProt P08235)
T1 sequence (looked up): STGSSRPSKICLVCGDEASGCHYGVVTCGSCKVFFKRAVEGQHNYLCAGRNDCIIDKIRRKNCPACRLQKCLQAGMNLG
Experiment: fluorescence polarization
Conditions: FP: 10 nM 6-FAM dsDNA, 100 mM NaCl, 20 mM Tris-HCl pH 7.4, 5% glycerol, temperature not stated, recombinant protein, residues 593-671, protein details: N-terminal 6xHis with TEV site

| Sequence | binding result (label: 5'-FAM on strand 1) | binding result (label: FAM (position not given)) |
| --- | --- | --- |
| CCCTGGGAATTTCCTGATA (double strand) [PLAU kBRE] | no binding |  |
| AATCGTGGAATTTCCTCTG (double strand) [IL8 kBRE] | no binding |  |
| GAGTGGGAATTTCCACTCA (double strand) [CCL2 kBRE] |  | no binding |
